PubChem BioAssay AID504784 | Drosophila RNAi Screening Center – 2011

Assay: 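Fly genes whose silencing alters how much lipid cells keep in droplets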 (primary screen)
Cell system: Drosophila Kc167 embryonic cells
Knock-down reagent: long dsRNA against Drosophila genes, about 250 ng dsRNA per well
Timing: 4 days
Challenge: cells fed 400 µM oleic acid bound to BSA
Measurement: 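Microscope images give a droplet-to-nucleus area ratio, taken as log and converted to a screen-wide B-score; higher values mean greater lipid storage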
Direction: droplet/nuclear area B-score: higher = more stored lipid (overstorage)
In all, the deposit lists about 17,000 reagents; this is an unselected part of those with a known target gene and a result. 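Each column is one replicate's B-score; the combined score over replicates was not deposited, so single values may mislead.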 A plus sign joins genes that one reagent is predicted to hit.

Tsp42Eq (Tetraspanin 42Eq) [DRSC06180] — droplet/nuclear area B-score, replicate 1 = -0.996; droplet/nuclear area B-score, replicate 2 = 0.815
ckd (cracked) [DRSC08418] — droplet/nuclear area B-score, replicate 1 = -0.505; droplet/nuclear area B-score, replicate 2 = -0.165
CG8838 [DRSC00712] — droplet/nuclear area B-score, replicate 1 = -0.0261; droplet/nuclear area B-score, replicate 2 = 0.893
CG31407 [DRSC12761] — droplet/nuclear area B-score, replicate 1 = 0.0845; droplet/nuclear area B-score, replicate 2 = -0.264
Reps (RALBP1 associated Eps domain containing) [DRSC02940] — droplet/nuclear area B-score, replicate 1 = 0.097; droplet/nuclear area B-score, replicate 2 = 2.29
CG30154 [DRSC05889] — droplet/nuclear area B-score, replicate 1 = -1.18; droplet/nuclear area B-score, replicate 2 = -0.528
RpS29 + snoRNA:Psi18S-1275 [DRSC16433] — droplet/nuclear area B-score, replicate 1 = 3.08; droplet/nuclear area B-score, replicate 2 = 6.22
sima (similar) [DRSC17055] — droplet/nuclear area B-score, replicate 1 = -0.00581; droplet/nuclear area B-score, replicate 2 = -0.121
sima (similar) [DRSC23203] — droplet/nuclear area B-score, replicate 1 = -0.0491; droplet/nuclear area B-score, replicate 2 = -0.611
CG30457 [DRSC06661] — droplet/nuclear area B-score, replicate 1 = -0.615; droplet/nuclear area B-score, replicate 2 = -1.25; droplet/nuclear area B-score, replicate 3 = -1.52
eIF3b (eukaryotic translation initiation factor 3 subunit b) [DRSC06900] — droplet/nuclear area B-score, replicate 1 = 0.986; droplet/nuclear area B-score, replicate 2 = 0.868
DENR (Density regulated protein) [DRSC20151] — droplet/nuclear area B-score, replicate 1 = -0.612; droplet/nuclear area B-score, replicate 2 = -0.34
Ant2 (Adenine nucleotide translocase 2) [DRSC19330] — droplet/nuclear area B-score, replicate 1 = 0.384; droplet/nuclear area B-score, replicate 2 = -1.42; droplet/nuclear area B-score, replicate 3 = 0.0679
CG16736 [DRSC15145] — droplet/nuclear area B-score, replicate 1 = 0.747; droplet/nuclear area B-score, replicate 2 = -0.146
CG6225 [DRSC15996] — droplet/nuclear area B-score, replicate 1 = -0.146; droplet/nuclear area B-score, replicate 2 = -0.106
GstE12 (Glutathione S transferase E12) [DRSC04047] — droplet/nuclear area B-score, replicate 1 = -0.0924; droplet/nuclear area B-score, replicate 2 = -0.769
CG4332 [DRSC19890] — droplet/nuclear area B-score, replicate 1 = -0.993; droplet/nuclear area B-score, replicate 2 = 0.309; droplet/nuclear area B-score, replicate 3 = 1.96
CG17754 [DRSC18131] — droplet/nuclear area B-score, replicate 1 = 2.6; droplet/nuclear area B-score, replicate 2 = 0.00225; droplet/nuclear area B-score, replicate 3 = 0.0568
ed (echinoid) [DRSC00350] — droplet/nuclear area B-score, replicate 1 = -3; droplet/nuclear area B-score, replicate 2 = -1.83
ed (echinoid) [DRSC00438] — droplet/nuclear area B-score, replicate 1 = 0.0145; droplet/nuclear area B-score, replicate 2 = -0.742
ed (echinoid) [DRSC00439] — droplet/nuclear area B-score, replicate 1 = -0.429; droplet/nuclear area B-score, replicate 2 = -2.41
ed (echinoid) [DRSC00478] — droplet/nuclear area B-score, replicate 1 = 2.47; droplet/nuclear area B-score, replicate 2 = -0.482
Pxt (Peroxinectin-like) [DRSC17040] — droplet/nuclear area B-score, replicate 1 = 2.21; droplet/nuclear area B-score, replicate 2 = 3.24
CG2200 [DRSC19840] — droplet/nuclear area B-score, replicate 1 = 2.37; droplet/nuclear area B-score, replicate 2 = 0.323; droplet/nuclear area B-score, replicate 3 = -0.257
eIF4E4 (eukaryotic translation initiation factor 4E4) [DRSC09701] — droplet/nuclear area B-score, replicate 1 = 2.82; droplet/nuclear area B-score, replicate 2 = 0.725
CG13110 [DRSC02208] — droplet/nuclear area B-score, replicate 1 = 0.763; droplet/nuclear area B-score, replicate 2 = 0.13; droplet/nuclear area B-score, replicate 3 = 0.171
CG9992 [DRSC20226] — droplet/nuclear area B-score, replicate 1 = -0.324; droplet/nuclear area B-score, replicate 2 = -0.198; droplet/nuclear area B-score, replicate 3 = 1.19
CG9992 [DRSC21643] — droplet/nuclear area B-score, replicate 1 = 0.267; droplet/nuclear area B-score, replicate 2 = -0.116
CNPYb (Canopy b) [DRSC09845] — droplet/nuclear area B-score, replicate 1 = -0.396; droplet/nuclear area B-score, replicate 2 = -0.156; droplet/nuclear area B-score, replicate 3 = -0.23
Dop1R1 (Dopamine 1-like receptor 1) [DRSC13021] — droplet/nuclear area B-score, replicate 1 = -0.192; droplet/nuclear area B-score, replicate 2 = 0.279
Dop1R1 (Dopamine 1-like receptor 1) [DRSC16652] — droplet/nuclear area B-score, replicate 1 = 1.53; droplet/nuclear area B-score, replicate 2 = -0.46
mnd (minidiscs) [DRSC11370] — droplet/nuclear area B-score, replicate 1 = 0.124; droplet/nuclear area B-score, replicate 2 = 2.46
mld (molting defective) [DRSC13681] — droplet/nuclear area B-score, replicate 1 = -0.728; droplet/nuclear area B-score, replicate 2 = -1.64
mld (molting defective) [DRSC14622] — droplet/nuclear area B-score, replicate 1 = 0.0244; droplet/nuclear area B-score, replicate 2 = -0.0974
mld (molting defective) [DRSC21771] — droplet/nuclear area B-score, replicate 1 = 0.496; droplet/nuclear area B-score, replicate 2 = 0.0252
fbp (fructose-1,6-bisphosphatase) [DRSC02077] — droplet/nuclear area B-score, replicate 1 = -0.663; droplet/nuclear area B-score, replicate 2 = -0.0651
CG2267 [DRSC15435] — droplet/nuclear area B-score, replicate 1 = -1.96; droplet/nuclear area B-score, replicate 2 = 0.119
CG12766 [DRSC08295] — droplet/nuclear area B-score, replicate 1 = -0.582; droplet/nuclear area B-score, replicate 2 = 0.0787
e(r) (enhancer of rudimentary) [DRSC18768] — droplet/nuclear area B-score, replicate 1 = -0.139; droplet/nuclear area B-score, replicate 2 = 1.11; droplet/nuclear area B-score, replicate 3 = 0.237
CG10232 [DRSC14218] — droplet/nuclear area B-score, replicate 1 = 1.36; droplet/nuclear area B-score, replicate 2 = 0.778
CG5850 [DRSC02905] — droplet/nuclear area B-score, replicate 1 = 0.0824; droplet/nuclear area B-score, replicate 2 = -0.718
pbl (pebble) [DRSC11381] — droplet/nuclear area B-score, replicate 1 = 4.99; droplet/nuclear area B-score, replicate 2 = 0.456
ssp5 (short spindle 5) [DRSC14955] — droplet/nuclear area B-score, replicate 2 = 0.089
CG42507 + Trl [DRSC09325] — droplet/nuclear area B-score, replicate 1 = 2.19; droplet/nuclear area B-score, replicate 2 = -0.901
CG42507 + Trl [DRSC11308] — droplet/nuclear area B-score, replicate 1 = -2.35; droplet/nuclear area B-score, replicate 2 = -0.606; droplet/nuclear area B-score, replicate 3 = -1.44
dnr1 (defense repressor 1) [DRSC03948] — droplet/nuclear area B-score, replicate 1 = -0.249; droplet/nuclear area B-score, replicate 2 = 1.75
dnr1 (defense repressor 1) [DRSC04122] — droplet/nuclear area B-score, replicate 1 = 1.2; droplet/nuclear area B-score, replicate 2 = -2.05
CG14662 [DRSC12248] — droplet/nuclear area B-score, replicate 1 = 0.503; droplet/nuclear area B-score, replicate 2 = -0.355
COX5B (Cytochrome c oxidase subunit 5B) [DRSC02115] — droplet/nuclear area B-score, replicate 1 = -0.677; droplet/nuclear area B-score, replicate 2 = -2.01
lectin-24Db [DRSC00553] — droplet/nuclear area B-score, replicate 1 = -0.45; droplet/nuclear area B-score, replicate 2 = 0.0333
CG6059 [DRSC15958] — droplet/nuclear area B-score, replicate 1 = 1.75

Limited to “droplet/nuclear area B-score, replicate 2”, for 5 of the entries above:
CG30154 [DRSC05889] = -0.528
RpS29 + snoRNA:Psi18S-1275 [DRSC16433] = 6.22
sima (similar) [DRSC17055] = -0.121
sima (similar) [DRSC23203] = -0.611
CG30457 [DRSC06661] = -1.25
